According to paper doi:10.1101/2020.07.05.188557:
Results are given in words; binding and its absence hold for the method and conditions named. In cells and extracts the contact can be indirect. For part of these data: A result given as binding can be weak or reduced; the word gives no strength.

Columns and labels:
Assay in all cases: split reporter
[1] = target: gal2-2TM-Cub-GST (S. cerevisiae)
[2] = target: hxt1-6TM-Cub-GST (S. cerevisiae)
[3] = target: gap1-2TM-Cub-GST (S. cerevisiae)
[4] = target: hxt1-4TM-Cub-GST (S. cerevisiae)
[5] = target: ssy1-2TM-Cub-GST (S. cerevisiae)
[6] = target: ssy1-10TM-Cub-GST (S. cerevisiae)
[7] = target: ssy1-4TM-Cub-GST (S. cerevisiae)
[8] = target: ssy1-6TM-Cub-GST (S. cerevisiae)
[9] = target: agp1-4TM-Cub-GST (S. cerevisiae)
[10] = target: gap1-10TM-Cub-GST (S. cerevisiae)
[11] = target: gap1-8TM-Cub-GST (S. cerevisiae)
[12] = target: agp1-8TM-Cub-GST (S. cerevisiae)
[13] = target: ssy1-8TM-Cub-GST (S. cerevisiae)
[14] = target: gal2-8TM-Cub-GST (S. cerevisiae)
[15] = target: can1-8TM-Cub-GST (S. cerevisiae)

B1: Shr3-NubA (protein, UniProt Q02774 1-210)
chain: MFSYSDFCSIGTAMILSATTFLMGVFFSNMPYDYHLLFNPNSTQEHFDLALRHYQILHETPLPVIVTLCVVAGIGLVGGTIKVFKPNPELQMFEYCSLGLYVLAICVFLTNVKTGIDCSVSHNWGEVTENQGLAVIASSNIILLVMFAGVIILQIGLWYSNWDLQKRLKEFYAQEEREAANAGKKTEKVDNAKKNDNKSKGAQKRKNAKK
- binding [1]: no binding
- binding [2]: no binding
- binding [3]: no binding
- binding [4]: no binding
- binding [5]: binds
- binding [6]: binds
- binding [7]: binds
- binding [8]: binds
- binding [9]: binds
- binding [10]: binds
- binding [11]: binds
- binding [12]: binds
- binding [13]: binds
- binding [14]: no binding
- binding [15]: binds
